According to paper PMC6351032:
These are yes or no findings as the source states them, for the method shown.

Molecular target: human epidermal growth factor receptor HER2/neu (human (endogenous in SK-BR-3)) (UniProt P04626)
Assay: flow cytometry on cells; ~10^5 SK-BR-3 cells (HER2-positive) incubated with the protein at 2 μm in PBS with 1% bovine serum albumin on ice for 15 min, washed twice; FL1 channel (488 nm laser, 533/30 BP), live single cells; HER2-negative CHO cells as control; only the binder purified

B1: FITC-conjugated beta-lactoglobulin (protein, UniProt P02754 17-178)
chain: LIVTQTMKGLDIQKVAGTWYSLAMAASDISLLDAQSAPLRVYVEELKPTPEGDLEILLQKWENGECAQKKIIAEKTKIPAVFKIDALNENKVLVLDTDYKKYLLFCMENSAEPEQSLACQCLVRTPEVDDEALEKFDKALKALPMHIRLSFNPTQLEEQCHI
modifications: conjugated to FITC (fluorescein isothiocyanate), sites not stated
With B1 the binding was “no binding (tested: 2 μm)”.
